Paper PMC9527190
These are yes or no findings as the source states them, for the method shown. Binding seen in cells or lysates may run through a third protein. Some binding calls cover weakened binding; strength is not graded here.

Protein sequences, listed by entry. Tags and fused reporters are not part of them. Residues count along the entry.
UniProt Q16665: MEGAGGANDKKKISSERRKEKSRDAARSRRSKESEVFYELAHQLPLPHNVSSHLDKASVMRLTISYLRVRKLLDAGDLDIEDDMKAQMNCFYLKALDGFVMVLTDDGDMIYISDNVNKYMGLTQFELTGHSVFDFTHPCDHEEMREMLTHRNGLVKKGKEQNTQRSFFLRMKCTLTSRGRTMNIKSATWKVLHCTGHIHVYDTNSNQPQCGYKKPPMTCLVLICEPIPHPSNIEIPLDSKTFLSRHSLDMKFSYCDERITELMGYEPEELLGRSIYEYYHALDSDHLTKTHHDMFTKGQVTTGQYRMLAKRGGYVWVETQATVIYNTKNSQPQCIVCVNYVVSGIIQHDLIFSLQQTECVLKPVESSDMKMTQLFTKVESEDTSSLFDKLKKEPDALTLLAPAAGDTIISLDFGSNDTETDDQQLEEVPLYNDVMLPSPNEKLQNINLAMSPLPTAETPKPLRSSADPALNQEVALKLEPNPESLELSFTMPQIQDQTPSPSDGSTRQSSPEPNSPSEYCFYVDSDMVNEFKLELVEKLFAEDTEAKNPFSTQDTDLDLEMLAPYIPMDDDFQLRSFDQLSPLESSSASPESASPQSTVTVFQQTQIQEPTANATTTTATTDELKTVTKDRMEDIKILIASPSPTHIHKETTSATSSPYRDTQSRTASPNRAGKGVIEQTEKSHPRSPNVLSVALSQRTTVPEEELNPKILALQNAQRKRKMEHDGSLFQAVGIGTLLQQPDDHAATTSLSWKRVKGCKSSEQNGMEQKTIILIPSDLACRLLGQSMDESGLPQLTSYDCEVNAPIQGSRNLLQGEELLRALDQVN
UniProt P46531, residues 1754-2555: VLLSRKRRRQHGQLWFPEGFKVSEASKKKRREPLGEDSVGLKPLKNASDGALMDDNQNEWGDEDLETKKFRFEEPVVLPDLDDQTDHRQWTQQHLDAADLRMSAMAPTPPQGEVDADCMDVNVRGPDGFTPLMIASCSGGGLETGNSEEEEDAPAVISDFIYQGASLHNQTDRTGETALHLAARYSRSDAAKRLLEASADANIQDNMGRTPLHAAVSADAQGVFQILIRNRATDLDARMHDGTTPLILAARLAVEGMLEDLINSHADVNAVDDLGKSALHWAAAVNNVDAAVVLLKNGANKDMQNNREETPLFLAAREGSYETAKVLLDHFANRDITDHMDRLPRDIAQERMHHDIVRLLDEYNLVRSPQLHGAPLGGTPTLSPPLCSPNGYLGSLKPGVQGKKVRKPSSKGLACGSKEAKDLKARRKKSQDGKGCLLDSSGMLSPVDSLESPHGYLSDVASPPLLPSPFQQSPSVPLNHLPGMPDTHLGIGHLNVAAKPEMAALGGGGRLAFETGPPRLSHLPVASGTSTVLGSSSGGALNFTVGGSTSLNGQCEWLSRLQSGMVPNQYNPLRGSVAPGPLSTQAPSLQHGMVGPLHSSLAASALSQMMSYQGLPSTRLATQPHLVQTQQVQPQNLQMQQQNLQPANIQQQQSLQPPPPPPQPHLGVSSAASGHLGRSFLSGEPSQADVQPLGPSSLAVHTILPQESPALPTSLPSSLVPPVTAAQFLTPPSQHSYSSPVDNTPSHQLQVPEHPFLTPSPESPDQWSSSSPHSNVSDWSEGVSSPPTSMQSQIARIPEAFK

Biological target: hypoxia-inducible factor-1α (human (endogenous in U251-MG)) (UniProt Q16665)
Experiment: co-IP; lysates of high-density cultured U251-MG cells (1% NP-40, 20 mM Tris-HCl pH 7.5, 137 mM NaCl, 2 mM EDTA) precipitated with anti-HIF-1α or normal IgG and protein G agarose, then immunoblot; Fig. 5B untreated cells, Fig. 5D siControl 48 h and MG132 2 h

binding: binds
Substance: Notch1 intracellular domain (from UniProt P46531 1754-2555) (domain or fragment)
